PubChem BioAssay AID1259308 – NCATS – 2017
This is one part, drawn at random, of about 59,000 deposited reagents. About 1,510 of all reagents (2.6%) count as active. 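Calls use total luciferase alone and ignore viability, so some active siRNAs may act by altering cell number.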 Entries without a mark were called inactive. Reagents against one gene are numbered here.

- Purpose: 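Genes whose loss raises luciferase production in HEK293 cells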 (primary screen)
- Cell system: human HEK293 embryonic kidney cells stably expressing firefly luciferase (HEK-CMV-Luc2-Hygro)
- Knock-down reagent: single siRNA against human genes, 0.8 pmol siRNA per well
- Timing: 72 h
- Measurement: 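Luciferase light (ONE-Glo) measured on one replicate plate set and viability (CellTiter-Glo) on the other, scaled to a negative control siRNA, with robust z-scores and luciferase per cell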
- Reading the numbers: total luciferase, z-score and total luciferase, % of control: higher = more reporter protein produced; luciferase per cell, z-score: higher = more reporter output per viable cell; viable cells, % of control: higher = more viable cells
- Call rule: 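An siRNA counts as active if its total luciferase robust z-score exceeds 3; genes with two or more such siRNAs out of three were retested with fresh siRNAs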
- Calls: active = raised luciferase; inactive = no rise

no.	gene knocked down	reagent	total luciferase, z-score	total luciferase, % of control	luciferase per cell, z-score	viable cells, % of control
1	RNF128 (ring finger protein 128)	1	-0.611	69.7	-0.459	87.9
2	RNF128 (ring finger protein 128)	2	-0.377	74.4	-0.824	103
3	RNF128 (ring finger protein 128)	3	1.21	106	1.01	90.7
4	GJA1 (gap junction protein alpha 1)	1	-1.12	59.6	-0.637	78.7
5	GJA1 (gap junction protein alpha 1)	2	0.968	101	1.15	83.4
6	GJA1 (gap junction protein alpha 1)	3	1.8	118	1.26	94.5
7	LPAR6 (lysophosphatidic acid receptor 6)	1	0.257	87	0.0637	95.6
8	LPAR6 (lysophosphatidic acid receptor 6)	2	0.25	86.9	0.242	91.1
9	LPAR6 (lysophosphatidic acid receptor 6)	3	-0.148	78.9	-0.107	90.7
10	VSNL1 (visinin like 1)	1	2.64	134	1.54	100
11	VSNL1 (visinin like 1)	2	-0.851	65	-1.06	96
12	VSNL1 (visinin like 1)	3	2.17	125	1.75	88.1
13	NEK4 (NIMA related kinase 4)	1	-1.76	46.9	-1.28	73.4
14	NEK4 (NIMA related kinase 4)	2	0.686	95.5	0.714	88.4
15	NEK4 (NIMA related kinase 4)	3	-1.04	61.1	-1.29	95.8
16	IFNA2 (interferon alpha 2)	1	-0.514	71.7	-0.822	99.4
17	IFNA2 (interferon alpha 2)	2	-0.332	75.3	0.102	81.9
18	IFNA2 (interferon alpha 2)	3	-0.426	73.4	-0.532	94.4
19	SCN3B (sodium voltage-gated channel beta subunit 3)	1	-0.4	73.9	-0.107	85
20	SCN3B (sodium voltage-gated channel beta subunit 3)	2	-2.57	30.8	-3.27	81.5
21	SCN3B (sodium voltage-gated channel beta subunit 3)	3	-1.02	61.6	-1.6	105
22	OTX1 (orthodenticle homeobox 1)	1	-0.643	69.1	-0.779	94.8
23	OTX1 (orthodenticle homeobox 1)	2	1.2	106	2.52	60.9
24	OTX1 (orthodenticle homeobox 1)	3	-0.804	65.9	-1.02	96.3
25	LIX1 (limb and CNS expressed 1)	1	1.09	104	0.705	96.1
26	LIX1 (limb and CNS expressed 1)	2	0.871	99.2	0.753	90.9
27	LIX1 (limb and CNS expressed 1)	3	2.21	126	2.73	68.6

The list goes on (2 carried over from the part before).
no.	gene knocked down	reagent	total luciferase, z-score	total luciferase, % of control	luciferase per cell, z-score	viable cells, % of control
26	LIX1 (limb and CNS expressed 1)	2	0.871	99.2	0.753	90.9
27	LIX1 (limb and CNS expressed 1)	3	2.21	126	2.73	68.6
28	GANAB (glucosidase II alpha subunit)	1	-1.13	59.5	-1.23	91.9
29	GANAB (glucosidase II alpha subunit)	2	-0.41	73.7	-0.149	85.7
30	GANAB (glucosidase II alpha subunit)	3	0.51	92	1.28	73.3
31	INHBC (inhibin subunit beta C)	1	-0.63	69.4	0.196	73.6
32	INHBC (inhibin subunit beta C)	2	-0.308	75.8	0.244	79.4
33	INHBC (inhibin subunit beta C)	3	-1.03	61.4	-1.12	92.1
34	PDSS1 (decaprenyl diphosphate synthase subunit 1)	1	0.504	91.9	0.385	92.8
35	PDSS1 (decaprenyl diphosphate synthase subunit 1)	2	-0.0888	80.1	-0.835	112
36	PDSS1 (decaprenyl diphosphate synthase subunit 1)	3	-0.812	65.7	-1.31	104
37	CFAP91 (cilia and flagella associated protein 91)	1	0.147	84.8	0.615	80.6
38	CFAP91 (cilia and flagella associated protein 91)	2	-0.696	68	-0.198	80.1
39	CFAP91 (cilia and flagella associated protein 91)	3	0.787	97.5	0.24	102
40	TFCP2L1 (transcription factor CP2 like 1)	1	6.63 (active)	214	4.44	74.2
41	TFCP2L1 (transcription factor CP2 like 1)	2	-1.29	56.2	-0.371	69.3
42	TFCP2L1 (transcription factor CP2 like 1)	3	0.727	96.3	0.858	85.9
43	NAXD (NAD(P)HX dehydratase)	1	-0.348	75	0.344	76.5
44	NAXD (NAD(P)HX dehydratase)	2	0.0815	83.5	-0.00034	93.3
45	NAXD (NAD(P)HX dehydratase)	3	0.85	98.8	0.203	105
46	INPP4A (inositol polyphosphate-4-phosphatase type I A)	1	-0.429	73.3	-0.402	91.1
47	INPP4A (inositol polyphosphate-4-phosphatase type I A)	2	-1.08	60.3	-1.59	102
48	INPP4A (inositol polyphosphate-4-phosphatase type I A)	3	0.19	85.7	-0.317	104
49	ITGA10 (integrin subunit alpha 10)	1	-0.632	69.3	-0.59	90.5
50	ITGA10 (integrin subunit alpha 10)	2	0.374	89.3	-0.49	114
51	ITGA10 (integrin subunit alpha 10)	3	0.225	86.4	0.444	85.9
52	NHSL3 (NHS like 3)	1	1.16	105	1.43	80.5
53	NHSL3 (NHS like 3)	2	-0.465	72.6	-0.785	99.8
54	NHSL3 (NHS like 3)	3	-1.17	58.7	-1.56	99
55	CEACAM20 (CEA cell adhesion molecule 20)	1	-0.3	75.9	0.308	78.2
56	CEACAM20 (CEA cell adhesion molecule 20)	2	0.5	91.8	0.0273	102
57	CEACAM20 (CEA cell adhesion molecule 20)	3	1.25	107	1.72	75.7
